Test results from publication PMC8581049.
No constants are given. Whether binding was seen depends on the method and setting. In cells and extracts the contact can be indirect. Some binding calls cover weakened binding; strength is not graded here.

Sequences of proteins named here, by UniProt entry; tags and fusion partners are left off.
UniProt P58801: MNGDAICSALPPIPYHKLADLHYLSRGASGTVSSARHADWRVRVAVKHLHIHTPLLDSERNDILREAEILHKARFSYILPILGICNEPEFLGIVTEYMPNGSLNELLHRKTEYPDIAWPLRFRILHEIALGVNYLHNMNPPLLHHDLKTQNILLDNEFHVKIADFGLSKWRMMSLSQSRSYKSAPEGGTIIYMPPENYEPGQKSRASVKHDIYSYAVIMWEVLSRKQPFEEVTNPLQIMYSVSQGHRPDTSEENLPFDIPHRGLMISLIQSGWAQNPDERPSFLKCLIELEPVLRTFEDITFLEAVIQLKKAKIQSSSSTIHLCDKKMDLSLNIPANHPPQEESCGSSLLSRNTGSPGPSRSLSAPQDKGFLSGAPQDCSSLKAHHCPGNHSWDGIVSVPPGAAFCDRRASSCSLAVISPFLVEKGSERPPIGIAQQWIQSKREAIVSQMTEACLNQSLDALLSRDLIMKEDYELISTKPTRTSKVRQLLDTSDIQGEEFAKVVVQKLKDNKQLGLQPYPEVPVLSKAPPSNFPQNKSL
UniProt O35099: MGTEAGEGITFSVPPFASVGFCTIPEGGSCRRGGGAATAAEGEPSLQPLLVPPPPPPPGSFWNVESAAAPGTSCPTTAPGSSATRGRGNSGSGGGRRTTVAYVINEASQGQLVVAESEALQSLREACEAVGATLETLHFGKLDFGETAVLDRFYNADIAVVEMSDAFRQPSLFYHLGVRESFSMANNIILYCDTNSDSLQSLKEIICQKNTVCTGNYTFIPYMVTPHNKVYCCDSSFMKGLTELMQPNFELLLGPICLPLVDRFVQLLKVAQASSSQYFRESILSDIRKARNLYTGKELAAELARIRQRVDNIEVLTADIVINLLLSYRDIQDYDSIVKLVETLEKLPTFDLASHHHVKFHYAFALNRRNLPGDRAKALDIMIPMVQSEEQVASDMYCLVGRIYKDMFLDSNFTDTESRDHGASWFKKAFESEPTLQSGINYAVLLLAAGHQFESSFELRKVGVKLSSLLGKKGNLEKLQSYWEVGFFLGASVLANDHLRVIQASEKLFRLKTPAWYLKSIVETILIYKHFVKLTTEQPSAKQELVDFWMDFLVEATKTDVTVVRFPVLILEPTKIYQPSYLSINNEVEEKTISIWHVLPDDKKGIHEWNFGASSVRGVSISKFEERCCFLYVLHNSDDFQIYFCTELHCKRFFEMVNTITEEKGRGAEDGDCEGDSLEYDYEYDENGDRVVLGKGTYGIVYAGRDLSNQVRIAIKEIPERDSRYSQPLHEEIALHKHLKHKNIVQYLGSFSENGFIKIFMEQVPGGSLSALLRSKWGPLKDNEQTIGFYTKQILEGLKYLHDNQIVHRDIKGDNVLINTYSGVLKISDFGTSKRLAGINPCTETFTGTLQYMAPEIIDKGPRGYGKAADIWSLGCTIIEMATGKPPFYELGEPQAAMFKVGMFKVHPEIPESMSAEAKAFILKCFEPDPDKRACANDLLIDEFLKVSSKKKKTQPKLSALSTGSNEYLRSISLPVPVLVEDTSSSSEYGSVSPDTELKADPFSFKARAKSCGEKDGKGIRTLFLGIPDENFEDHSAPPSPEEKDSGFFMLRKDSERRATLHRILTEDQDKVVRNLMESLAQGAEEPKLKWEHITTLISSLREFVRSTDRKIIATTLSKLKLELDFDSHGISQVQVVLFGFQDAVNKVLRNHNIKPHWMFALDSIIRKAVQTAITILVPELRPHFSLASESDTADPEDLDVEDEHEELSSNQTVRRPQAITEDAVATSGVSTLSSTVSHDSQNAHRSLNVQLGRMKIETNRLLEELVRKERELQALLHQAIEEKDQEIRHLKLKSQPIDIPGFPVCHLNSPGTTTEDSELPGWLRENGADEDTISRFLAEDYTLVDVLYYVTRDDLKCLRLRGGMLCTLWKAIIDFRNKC

Biological target: receptor-interacting serine/threonine-protein kinase 2 (RIPK2), endogenous in HIB 1B cells (mouse (endogenous in HIB 1B)) (UniProt P58801)
Test: co-IP; endogenous proteins; differentiated HIB 1B cells, immunoprecipitation with anti-RIPK2 antibody, immunoblot; lysis buffer with 10 mM N-ethylmaleimide

In the case of “apoptosis signal-regulating kinase 1 (ASK1), endogenous in HIB 1B cells (from UniProt O35099 1-1380) (enzyme)”, the binding is reported as “binds”.
